PubChem BioAssay AID1224828 | NIAID | 2016

Screen: 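Regulators linking TLR4 signalling to p65 nuclear translocation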 (primary screen)
Cell system: mouse RAW264.7 G9 macrophage reporter cells (GFP-p65, Tnf promoter-mCherry)
Reagents: siRNA pool against mouse genes, 100 nM
Time to read-out: 2 days siRNA transfection, then 40 min LPS before fixation
Challenge: LPS (Salmonella minnesota R595) at 10 ng/ml
Read-out: 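Microscopy ratio of nuclear to perinuclear-ring GFP-p65 signal, scaled to the plate median; gene score is the average of two replicate robust z-scores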
Scale: p65 translocation robust z-score: higher = more nuclear NF-kappaB p65 after LPS than the plate median; nuclear/cytoplasmic p65 ratio: higher = more nuclear NF-kappaB p65
Call rule: 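Active if robust z is above 3.3 (negative regulators) or below -1.56, the Tlr4 control median (positive regulators); activity score 50 or more; control wells not called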
Calls: active = hit (p65 shift raised or lowered); inactive = no clear change
The whole screen tested about 17,000 reagents; below is an unselected part. Of all reagents, 762 (4.5%) got an active call. 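Active calls include both raised and lowered p65 entry, mostly lowered; wells with fewer than 50 cells lack a z-score.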 Raw values vary from plate to plate and are shown uncorrected. Reagents against one gene are numbered here. No sequences are given here.

Depletion of Smap2 gave: nuclear/cytoplasmic p65 ratio, rep 1 = 1.49; nuclear/cytoplasmic p65 ratio, rep 2 = 1.21; low cell count flag fewer than 50 cells per well; well left out of scoring; inactive.
Depletion of Tor1aip2 #1 gave: p65 translocation robust z-score -1.28; nuclear/cytoplasmic p65 ratio, rep 1 = 1.36; nuclear/cytoplasmic p65 ratio, rep 2 = 1.32; low cell count flag enough cells to score; inactive.
After knock-down of Tor1aip2 #2, the screen gave p65 translocation robust z-score 0.8; nuclear/cytoplasmic p65 ratio, rep 1 = 1.62; nuclear/cytoplasmic p65 ratio, rep 2 = 1.49; low cell count flag enough cells to score; inactive.
Silencing of T2 resulted in: p65 translocation robust z-score 0.41; nuclear/cytoplasmic p65 ratio, rep 1 = 1.39; nuclear/cytoplasmic p65 ratio, rep 2 = 1.26; low cell count flag enough cells to score; inactive.
Slc25a4 showed p65 translocation robust z-score -1.81; nuclear/cytoplasmic p65 ratio, rep 1 = 1.27; nuclear/cytoplasmic p65 ratio, rep 2 = 1.26; low cell count flag enough cells to score; active.
With knock-down of Wasf3, the screen gave p65 translocation robust z-score -0.26; nuclear/cytoplasmic p65 ratio, rep 1 = 1.52; nuclear/cytoplasmic p65 ratio, rep 2 = 1.53; low cell count flag enough cells to score; inactive.
After knock-down of Acbd3, the record shows p65 translocation robust z-score -1.08; nuclear/cytoplasmic p65 ratio, rep 1 = 1.36; nuclear/cytoplasmic p65 ratio, rep 2 = 1.61; low cell count flag enough cells to score; inactive.
Depletion of Ankrd6 resulted in: p65 translocation robust z-score 0.81; nuclear/cytoplasmic p65 ratio, rep 1 = 1.67; nuclear/cytoplasmic p65 ratio, rep 2 = 1.87; low cell count flag enough cells to score; inactive.
Against Pclo, the entry reads p65 translocation robust z-score -1.55; nuclear/cytoplasmic p65 ratio, rep 1 = 1.23; nuclear/cytoplasmic p65 ratio, rep 2 = 1.12; low cell count flag enough cells to score; inactive.
Silencing of Mpg gave: p65 translocation robust z-score 0.3; nuclear/cytoplasmic p65 ratio, rep 1 = 1.5; nuclear/cytoplasmic p65 ratio, rep 2 = 1.37; low cell count flag enough cells to score; inactive.

Records above whose target name begins with A or a (2):
Acbd3: p65 translocation robust z-score = -1.08; nuclear/cytoplasmic p65 ratio, rep 1 = 1.36; nuclear/cytoplasmic p65 ratio, rep 2 = 1.61; low cell count flag = enough cells to score; outcome = inactive
Ankrd6: p65 translocation robust z-score = 0.81; nuclear/cytoplasmic p65 ratio, rep 1 = 1.67; nuclear/cytoplasmic p65 ratio, rep 2 = 1.87; low cell count flag = enough cells to score; outcome = inactive

Additional results:
Depletion of 1810030O07Rik resulted in: p65 translocation robust z-score 2; nuclear/cytoplasmic p65 ratio, rep 1 = 1.73; nuclear/cytoplasmic p65 ratio, rep 2 = 1.44; low cell count flag enough cells to score; inactive.
For Uqcrc1, the entry reads p65 translocation robust z-score -0.66; nuclear/cytoplasmic p65 ratio, rep 1 = 1.49; nuclear/cytoplasmic p65 ratio, rep 2 = 1.35; low cell count flag enough cells to score; inactive.
For Zbtb5 the deposit lists nuclear/cytoplasmic p65 ratio, rep 1 = 1.32; nuclear/cytoplasmic p65 ratio, rep 2 = 1.24; low cell count flag fewer than 50 cells per well; well left out of scoring; inactive.
With knock-down of Ntn1 the results were p65 translocation robust z-score -0.22; nuclear/cytoplasmic p65 ratio, rep 1 = 1.34; nuclear/cytoplasmic p65 ratio, rep 2 = 1.45; low cell count flag enough cells to score; inactive.
Silencing of Dlgap5 gave: p65 translocation robust z-score 0.79; nuclear/cytoplasmic p65 ratio, rep 1 = 1.63; nuclear/cytoplasmic p65 ratio, rep 2 = 1.44; low cell count flag enough cells to score; inactive.
After knock-down of Slc66a1, the screen gave p65 translocation robust z-score -0.77; nuclear/cytoplasmic p65 ratio, rep 1 = 1.24; nuclear/cytoplasmic p65 ratio, rep 2 = 1.17; low cell count flag enough cells to score; inactive.
After knock-down of Slc2a8, the record shows p65 translocation robust z-score -0.11; nuclear/cytoplasmic p65 ratio, rep 1 = 1.55; nuclear/cytoplasmic p65 ratio, rep 2 = 1.46; low cell count flag enough cells to score; inactive.
Hmgcs2 gave p65 translocation robust z-score -0.24; nuclear/cytoplasmic p65 ratio, rep 1 = 1.4; nuclear/cytoplasmic p65 ratio, rep 2 = 1.35; low cell count flag enough cells to score; inactive.
With knock-down of Tspyl5, the screen gave p65 translocation robust z-score 0.34; nuclear/cytoplasmic p65 ratio, rep 1 = 1.59; nuclear/cytoplasmic p65 ratio, rep 2 = 1.36; low cell count flag enough cells to score; inactive.
Against Fdx1 the deposit lists p65 translocation robust z-score 0.19; nuclear/cytoplasmic p65 ratio, rep 1 = 1.44; nuclear/cytoplasmic p65 ratio, rep 2 = 1.44; low cell count flag enough cells to score; inactive.
For H2ac8, the entry reads p65 translocation robust z-score 1.86; nuclear/cytoplasmic p65 ratio, rep 1 = 1.87; nuclear/cytoplasmic p65 ratio, rep 2 = 1.63; low cell count flag enough cells to score; inactive.
